Cell number after 72 h of treatment

From a melanoma drug combination screen (doi:10.1371/journal.pone.0140310); values rounded.

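Human melanoma cell lines in 1,536-well plates were treated with two drugs together for 72 h, then fixed, stained and imaged. Values are the number of DAPI-stained nuclei as a percentage of the DMSO control: 100 is no effect, lower means fewer cells. Every drug was used at one fixed concentration, the lower of two screened (a fifth of the higher). No replicate spread is given; individual values may be noisy.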 This is part of the screen, not chosen by result. A dash means that no value is listed here.

Drug key:
temozolomide (2 µM): Cn1nnc2c(C(N)=O)ncn2c1=O
MK-1775 (0.02 µM): C=CCn1c(=O)c2cnc(Nc3ccc(N4CCN(C)CC4)cc3)nc2n1-c1cccc(C(C)(C)O)n1
bexarotene (2 µM): C=C(c1ccc(C(=O)O)cc1)c1cc2c(cc1C)C(C)(C)CCC2(C)C
GW441756 (0.4 µM): Cn1cc(/C=C2\C(=O)Nc3cccnc32)c2ccccc21
embelin (1.2 µM): CCCCCCCCCCCC1=C(O)C(=O)C=C(O)C1=O
tamatinib (0.4 µM): COc1cc(Nc2ncc(F)c(Nc3ccc4c(n3)NC(=O)C(C)(C)O4)n2)cc(OC)c1OC

| # | Cell line | tamatinib and GW441756 | MK-1775 and GW441756 | temozolomide and embelin | GW441756 and temozolomide | bexarotene and temozolomide |
|---|---|---|---|---|---|---|
| 1 | COLO 829 | 89.3 | 91.6 | 89.2 | 82.6 | 86.0 |
| 2 | A101D | 93.7 | 91.0 | 97.8 | 89.2 | 92.6 |
| 3 | MEL-HO | 85.7 | 93.6 | 113 | 105 | 105 |
| 4 | G-361 | 100 | 88.6 | 113 | 110 | 96.0 |
| 5 | IST-MEL1 | 100 | 103 | 106 | 96.2 | 98.6 |
| 6 | LB2518-MEL | 99.0 | 70.5 | 101 | 104 | 123 |
| 7 | COLO 800 | 74.8 | 90.4 | 58.9 | 92.4 | 130 |
| 8 | 501mel | 92.8 | 68.4 | 96.8 | 88.8 | - |
| 9 | COLO 792 | 60.1 | 91.8 | 95.3 | 98.4 | 104 |
| 10 | C32 | 114 | 106 | 106 | 104 | 103 |
| 11 | A2058 | 95.2 | 83.7 | 84.7 | 78.2 | 86.9 |
| 12 | A375 | 77.4 | 72.6 | 89.5 | 90.9 | 92.2 |
| 13 | IPC-298 | 78.4 | 106 | 98.8 | 95.3 | 103 |
| 14 | LOX IMVI | 106 | 82.0 | 90.7 | 78.1 | 54.5 |

For reference, 2 entries once more:

Cell line	tamatinib and GW441756	MK-1775 and GW441756	temozolomide and embelin	GW441756 and temozolomide	bexarotene and temozolomide
LOX IMVI	106	82.0	90.7	78.1	54.5
A375	77.4	72.6	89.5	90.9	92.2